Laboratory results from patent publication US20100197768A1.
Results are given in words; binding and its absence hold for the method and conditions named. Binding seen in cells or lysates may run through a third protein. Some results given as binding are weak or reduced against the parent protein; the word gives no strength. Sequences can lack the tags named with a protein.

What was measured:
[1] = molecular target: HA-hA3G (human), Q9HC16; test: co-IP with V5 antibody, HA western, RNase A treated 293T extracts; details: remark: other sources report otherwise
[2] = molecular target: HA-hA3G (human), Q9HC16; test: co-IP with V5 antibody, HA western (FIG. 9b); details: remark: other sources report otherwise

B1: EGFP-V5-hA3G, Q9HC16 1-384 (enzyme, human, UniProt Q9HC16 1-384, looked up, not shown: large carriers)
chain: MKPHFRNTVERMYRDTFSYNFYNRPILSRRNTVWLCYEVKTKGPSRPPLDAKIFRGQVYSELKYHPEMRFFHWFSKWRKLHRDQEYEVTWYISWSPCTKCTRDMATFLAEDPKVTLTIFVARLYYFWDPDYQEALRSLCQKRDGPRATMKIMNYDEFQHCWSKFVYSQRELFEPWNNLPKYYILLHIMLGEILRHSMDPPTFTFNFNNEPWVRGRHETYLCYEVERMHNDTWVLLNQRRGFLCNQAPHKHGFLEGRHAELCFLDVIPFWKLDLDQDYRVTCFTSWSPCFSCAQEMAKFISKNKHVSLCIFTARIYDDQGRCQEGLRTLAEAGAKISIMTYSEFKHCWDTFVDHQGCPFQPWDGLDEHSQDLSGRLRAILQNQEN
B1 was tested, and the binding [1] was “binds” and the binding [2] was “binds”.
